Measurements: publication PMC6286318, “Structure-function-guided exploration of the antimicrobial peptide polybia-CP identifies activity determinants and generates synthetic therapeutic candidates” (Communications Biology, 2018)
No end group written: not given here.

What follows are substances tested on human red blood cells (assay: Hemolytic activity assay). Conditions: HC50 on human erythrocytes divided by average MIC of twelve strains.
Assay type: cell-based

First: ILGTILGLFKSL-NH2 [Peptide 17, [Phe]^9-Pol-CP-NH2]
Second: ILGTILGLLKSL-NH2 [WT, Pol-CP-NH2, reference compound]
The “Selectivity index SI = HC50/MIC average” value of the first is lower: 2.5 for the first, 3.1 for the second.

For “ILGTILKLLKSL-NH2 [Peptide 16, [Lys]^7-Pol-CP-NH2]”, the “Selectivity index SI = HC50/MIC average” value was 9.2.
